Assay results: PubChem BioAssay AID624297 (National Center for Advancing Translational Sciences (NCATS), 2012)
The whole screen tested about 340,000 compounds, of which about 6,200 (1.8%) were called active. The inconclusive results got no clear call from the source; some entries with a clear call stand among them for comparison. Calls come from the whole dose curve; as a rule, active = well fitted activation curve with a large enough effect; inconclusive = small, poorly fitted or top-dose-only effect; inactive = no such curve, though single readings can be large or run the other way. Potencies of inconclusive entries are doubtful fits and often do not repeat.

Assay: A quantitative high throughput screen for small molecules that induce DNA re-replication in SW480 colon adenocarcinoma cells. For re-replication activation: % of control where 0% means no effect. Note: nearly all actives have a fitted effect of over 55% in size.
Conditions: Hoechst DNA content imaging, 48 h; re-replication activation: at 46.1 µM (top of the series) unless noted
Procedure, shortened: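 Per well, 250 cells were exposed to pinned compound for 48 hr. Nuclear DNA was visualised with Hoechst (40 min, 37 C) and total object intensity recorded by fluorescence scanning.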
Potency is the fitted concentration of half-maximal effect.

Row | Compound | Potency | re-replication activation
1 | CCSc1nc2ccccc2n1C(=O)c1ccc(S(=O)(=O)N2CCCCC2)cc1 | inconclusive: 0.251 µM [activator, full curve, poor fit] | –
2 | O=C1NCCCCC1NS(=O)(=O)c1ccc(Cl)cc1 (centres undefined) | inactive | –
3 | O=[N+]([O-])c1cccc2nc3ccccc3c(NCCCn3ccnc3[N+](=O)[O-])c12 | inconclusive: 0.013 µM [activator, full curve, poor fit] | –
4 | C=CCOc1cccc(/C=C/c2nc3ccccc3c(=O)[nH]2)c1 | inconclusive: 25.9 µM [activator, partial curve, poor fit] | –
5 | CCN(CC)S(=O)(=O)c1cc(-c2nn(C)c(=O)c3ccccc23)ccc1C | inconclusive: 29.1 µM [activator, single point] | –
6 | Cc1ccc(S(=O)(=O)NCc2c(-c3ccccc3)c3cc(Cl)ccc3[nH]c2=O)cc1 | inactive | –
7 | Cc1ccccc1OCCn1cc(C(=O)O)c2ccccc21 | inactive | –
8 | COc1ccc(CNC(=O)Cn2c(=O)n(CC(=O)N3CCCCC3)c(=O)c3sccc32)cc1 | inconclusive: 18.4 µM [activator, single point] | –
9 | O=C(COc1ncnc2c(Cl)cc(Cl)cc12)NC1CCCCCC1 | inconclusive: 0.1 µM [activator, full curve, poor fit] | –
10 | Cc1cccc(/C(N)=N/OC(=O)c2ccccc2Cl)c1 | inconclusive: 16.4 µM [activator, partial curve, poor fit] | –
11 | O=C(c1ccccc1)c1ccc(OCCOCCN2CCN(Cc3ccccc3)CC2)cc1 | inconclusive: 20.6 µM [activator, single point] | –
12 | CN1/C(=C\C(=O)c2cccc(S(=O)(=O)N3CCCCC3)c2)C(C)(C)c2ccccc21 | inconclusive: 29.1 µM [activator, single point] | –
13 | Cc1cccn2c(=O)c3cc(S(=O)(=O)c4ccc(Br)cc4)c(=N)n(C4CCCCC4)c3nc12 | inconclusive: 1.3 µM [activator, partial curve] | –
14 | O=C(CSc1nc2ccc([N+](=O)[O-])cc2[nH]1)c1ccc2ccccc2c1 | inconclusive: 18.4 µM [activator, single point] | –
15 | c1ccc(CN2CCN(CCOCCOc3ccc4c(c3)CCC4)CC2)cc1 | inconclusive: 18.4 µM [activator, single point] | –
16 | O=C(COC(=O)c1sc2ccccc2c1Cl)Nc1ncc(Cl)cc1Cl | inconclusive: 29.1 µM [activator, single point] | –
17 | COC(=O)c1ccc(CSCc2ccc(C(=O)OC)o2)o1 | inactive | –
18 | COc1ccc(C(=O)C(Cc2cc(C(C)=O)ccc2OC)N2CCCC2)cc1 (centres undefined) | inactive | –
19 | Cn1nc(C(F)(F)F)c2cc(NC(=O)OCc3ccc(C(C)(C)C)cc3)sc21 | inactive | –
20 | O=C(Nc1ccccc1N1CCCC1)C1CC(=O)N(Cc2ccccc2)C1 (centres undefined) | inactive | –
21 | O=C1C2CC=CCC2C(=O)N1c1ccc(NCCc2ccc(O)cc2)c([N+](=O)[O-])c1 (centres undefined) | inactive | –
22 | CCC(CC)=N/N=C/c1c(O)n(CC)c2cc(C3=NNC(=O)CC3)ccc12 | inactive | –
23 | Cc1ccc(O)c(CNc2cnc3ccccc3c2)c1 | inconclusive: 29.1 µM [activator, single point] | –

Row | Compound | Potency | re-replication activation
24 | COc1cccc(/C=N/Nc2nn3cnnc3c3ccccc23)c1O | inconclusive: 3.66 µM [activator, full curve, poor fit] | –
25 | Cc1nnc(NC(=O)CCS(=O)(=O)Cc2ccccc2)s1 | inconclusive: 29.1 µM [activator, single point] | –
26 | CCc1noc(C)c1C(=O)N1CCN(S(=O)(=O)c2ccc(Br)cc2Cl)CC1 | inconclusive: 0.517 µM [activator, full curve, poor fit] | –
27 | O=c1c2cc(-c3ccccc3)sc2nc2n1N=C(c1cccs1)CS2 | inconclusive: 5.17 µM [activator, single point] | –
28 | Cc1ccccc1-n1nc2c(c1NC(=O)c1c(-c3ccccc3Cl)noc1C)CS(=O)(=O)C2 | inactive | –
29 | COc1cccc(C=NNC(=O)C(C)SC(C)C(=O)NN=Cc2cccc(OC)c2)c1 (centres undefined) | inactive | –
30 | COc1ccc(CCNC(=O)c2ccc(CSc3ccccc3)o2)cc1 | inactive | –
31 | CCN(c1ccccc1)S(=O)(=O)c1ccc(Cl)c(C(=O)N2CCCC2)c1 | inactive | –
32 | CCOc1ccc(/C=N/NC(=O)c2ccoc2C)cc1OC | inconclusive: 2.06 µM [activator, single point] | –
33 | CCCCN(C)Cc1cc(=O)oc2cc3c(cc12)CCCC3 | inconclusive: 0.13 µM [activator, full curve, poor fit] | –
34 | O=C(Cc1ccc(S(=O)(=O)N2CCOCC2)s1)Nc1cc(C(F)(F)F)ccc1N1CCCC1 | inconclusive: 25.9 µM [activator, single point] | –
35 | COc1ccc(Nc2oc(-c3ccc(OC)cc3)nc2C#N)cc1 | inactive | –
36 | COc1ccc(NC2CS(=O)(=O)CC2NCc2ccco2)cc1 (centres undefined) | – | inactive: -0.893% [at 9.22 µM]
37 | CCOc1cc(CN2CCCC(C(=O)c3cccc(C(F)(F)F)c3)C2)ccc1O (centres undefined) | inactive | –
38 | Cc1cc(S(=O)(=O)N(Cc2ccc(C(C)(C)C)cc2)Cc2cccs2)ccc1-n1cnnn1 | inconclusive: 29.1 µM [activator, single point] | –
39 | CC(C)(C)NC(=O)COc1coc(CN2CCN(C(=O)c3ccco3)CC2)cc1=O | inactive | –
40 | COCC(=O)Nc1nc(-c2ccc(-c3ccccc3)cc2)cs1 | inconclusive: 0.651 µM [activator, partial curve, poor fit] | –
41 | CN(C(=O)c1cccc(NC(=O)Cc2ccc(NC(=O)C3CCN(C(=O)C4CCCC4)CC3)cc2)c1)C1CC1 | inconclusive: 1.16 µM [activator, single point] | –
42 | CC(C)Cc1ccc(C(C)NC(=O)c2ccc(=O)[nH]c2)cc1 (centres undefined) | inconclusive: 20.6 µM [activator, single point] | –
43 | COc1ccc(CNC(=O)[C@@H](NC(=O)C2CCN(C(=O)[C@@H](N)CCSC)CC2)C(C)C)cc1 | inactive | –
44 | COc1ccc(Br)cc1/C=N/NC(=O)Cn1nnnc1N | inconclusive: 29.1 µM [activator, partial curve, poor fit] | –
45 | CNC(=O)NC(=O)CSc1nnc(-c2ccco2)n1Cc1ccccc1 | inactive | –
46 | CCOC(=O)CCSc1nc(C)c2ccccc2n1 | inactive | –

Row | Compound | Potency | re-replication activation
47 | COC(=O)C1=C(C)NC(=O)/C1=C\c1cc(C)n(-c2c(C)cccc2C)c1C | inconclusive: 18.4 µM [activator, single point] | –
48 | CCCCN(CCCC)Cc1ccc(C(=O)NNC(=O)Nc2ccc(Cl)cc2)o1 | inconclusive: 18.4 µM [activator, single point] | –
49 | CCc1sc(C(=O)Nc2cccnc2)cc1Br | inactive | –
50 | COc1cc2c(C#N)c(N3CCN(c4ccccc4OC)CC3)nc(N)c2c(N)n1 | inconclusive: 29.1 µM [activator, single point] | –
51 | Cc1ccc(C(=O)C(C)OC(=O)Cc2n[nH]c(=O)c3ccccc23)cc1 (centres undefined) | inconclusive: 29.1 µM [activator, single point] | –
52 | Cc1ccc(OCC(=O)Nc2cc(S(=O)(=O)N3CCOCC3)ccc2N2CCCC2)cc1 | inconclusive: 18.4 µM [activator, partial curve, poor fit] | –
53 | C/C(=C\C(=O)c1ccccc1)Nc1ccc2c(c1)OCO2 | inconclusive: 0.517 µM [activator, full curve, poor fit] | –
54 | CCOC(=O)c1ccccc1NC(=O)c1ccccc1N(C)S(C)(=O)=O | inactive | –
55 | CC1CN=C(N(C(=S)Nc2ccccc2)c2cccc(C(F)(F)F)c2)S1 (centres undefined) | inconclusive: 29.1 µM [activator, single point] | –
56 | COc1ccc(CCNC(=O)c2ccc(CS(=O)Cc3ccc(Cl)cc3)o2)cc1OC (centres undefined) | inactive | –
57 | CCOC(=O)C1CCCN(C(=O)c2ccc(Cl)cc2)C1 (centres undefined) | inactive | –
58 | Cc1cccc(OCC(=O)Nc2nc3ccc([N+](=O)[O-])cc3s2)c1C | inconclusive: 9.2 µM [activator, partial curve, poor fit] | –
59 | O=C(CSc1nnc(-c2cccc(S(=O)(=O)N3CCCC3)c2)n1-c1ccccc1)Nc1cccc(C(=O)O)c1 | inconclusive: 0.116 µM [activator, full curve, poor fit] | –
60 | Cc1cc(/C=C(/C#N)c2cccc(F)c2)c(C)n1-c1cccnc1 | inconclusive: 29.1 µM [activator, single point] | –
61 | O=C(N/N=C1/CC2CCC1C2)c1cc2ccccc2cc1O (centres undefined) | inconclusive: 29.1 µM [activator, single point] | –
62 | CCCSc1nnc(Cc2cc(=O)[nH]c(=O)[nH]2)n1-c1cc(C)ccc1C | inactive | –
63 | CCCCN(C)Cc1c(C)[nH]c2ccccc2c1=O | inconclusive: 0.0046 µM [activator, full curve, poor fit] | –
64 | Cc1ccc(C(C)NC(=O)/C(C#N)=C\c2c(C)[nH]c3ccccc23)cc1 (centres undefined) | inconclusive: 29.1 µM [activator, single point] | –
65 | CCCCC(=O)Nc1ccc(C2C(=O)c3ccccc3C2=O)cc1 | inactive | –
66 | CCOc1ccc(CCNC(=O)C2CC(=O)N(CCc3ccccc3)C2)cc1OCC (centres undefined) | inactive | –
67 | CCCNC(=O)c1ccc2c(c1)CCN2S(C)(=O)=O | inconclusive: 4.11 µM [activator, single point] | –
68 | O=C1/C(=C/c2cccc(O)c2)SC(=S)N1CC1CCCO1 (centres undefined) | inconclusive: 4.11 µM [activator, full curve, poor fit] | –
69 | CCN1C(=O)[C@H]2[C@@H](c3ccc(-c4ccccc4)cc3)N[C@@](Cc3ccccc3)(C(=O)OC)[C@H]2C1=O | inactive | –

18 entries already listed, arranged by count of non-hydrogen atoms, high to low.
Row | Compound | Potency | re-replication activation
59 | O=C(CSc1nnc(-c2cccc(S(=O)(=O)N3CCCC3)c2)n1-c1ccccc1)Nc1cccc(C(=O)O)c1 | inconclusive: 0.116 µM [activator, full curve, poor fit] | –
69 | CCN1C(=O)[C@H]2[C@@H](c3ccc(-c4ccccc4)cc3)N[C@@](Cc3ccccc3)(C(=O)OC)[C@H]2C1=O | inactive | –
8 | COc1ccc(CNC(=O)Cn2c(=O)n(CC(=O)N3CCCCC3)c(=O)c3sccc32)cc1 | inconclusive: 18.4 µM [activator, single point] | –
52 | Cc1ccc(OCC(=O)Nc2cc(S(=O)(=O)N3CCOCC3)ccc2N2CCCC2)cc1 | inconclusive: 18.4 µM [activator, partial curve, poor fit] | –
29 | COc1cccc(C=NNC(=O)C(C)SC(C)C(=O)NN=Cc2cccc(OC)c2)c1 (centres undefined) | inactive | –
50 | COc1cc2c(C#N)c(N3CCN(c4ccccc4OC)CC3)nc(N)c2c(N)n1 | inconclusive: 29.1 µM [activator, single point] | –
37 | CCOc1cc(CN2CCCC(C(=O)c3cccc(C(F)(F)F)c3)C2)ccc1O (centres undefined) | inactive | –
15 | c1ccc(CN2CCN(CCOCCOc3ccc4c(c3)CCC4)CC2)cc1 | inconclusive: 18.4 µM [activator, single point] | –
5 | CCN(CC)S(=O)(=O)c1cc(-c2nn(C)c(=O)c3ccccc23)ccc1C | inconclusive: 29.1 µM [activator, single point] | –
51 | Cc1ccc(C(=O)C(C)OC(=O)Cc2n[nH]c(=O)c3ccccc23)cc1 (centres undefined) | inconclusive: 29.1 µM [activator, single point] | –
27 | O=c1c2cc(-c3ccccc3)sc2nc2n1N=C(c1cccs1)CS2 | inconclusive: 5.17 µM [activator, single point] | –
60 | Cc1cc(/C=C(/C#N)c2cccc(F)c2)c(C)n1-c1cccnc1 | inconclusive: 29.1 µM [activator, single point] | –
4 | C=CCOc1cccc(/C=C/c2nc3ccccc3c(=O)[nH]2)c1 | inconclusive: 25.9 µM [activator, partial curve, poor fit] | –
32 | CCOc1ccc(/C=N/NC(=O)c2ccoc2C)cc1OC | inconclusive: 2.06 µM [activator, single point] | –
68 | O=C1/C(=C/c2cccc(O)c2)SC(=S)N1CC1CCCO1 (centres undefined) | inconclusive: 4.11 µM [activator, full curve, poor fit] | –
23 | Cc1ccc(O)c(CNc2cnc3ccccc3c2)c1 | inconclusive: 29.1 µM [activator, single point] | –
63 | CCCCN(C)Cc1c(C)[nH]c2ccccc2c1=O | inconclusive: 0.0046 µM [activator, full curve, poor fit] | –
49 | CCc1sc(C(=O)Nc2cccnc2)cc1Br | inactive | –
